Paper doi:10.1101/252056
Results are given in words; binding and its absence hold for the method and conditions named. Binding seen in cells or lysates may run through a third protein. Some entries that bind do so weakly or less than the wild type.

Amino acid sequences for entries named in this document (tags omitted). Residues count along the entry.
UniProt O14744: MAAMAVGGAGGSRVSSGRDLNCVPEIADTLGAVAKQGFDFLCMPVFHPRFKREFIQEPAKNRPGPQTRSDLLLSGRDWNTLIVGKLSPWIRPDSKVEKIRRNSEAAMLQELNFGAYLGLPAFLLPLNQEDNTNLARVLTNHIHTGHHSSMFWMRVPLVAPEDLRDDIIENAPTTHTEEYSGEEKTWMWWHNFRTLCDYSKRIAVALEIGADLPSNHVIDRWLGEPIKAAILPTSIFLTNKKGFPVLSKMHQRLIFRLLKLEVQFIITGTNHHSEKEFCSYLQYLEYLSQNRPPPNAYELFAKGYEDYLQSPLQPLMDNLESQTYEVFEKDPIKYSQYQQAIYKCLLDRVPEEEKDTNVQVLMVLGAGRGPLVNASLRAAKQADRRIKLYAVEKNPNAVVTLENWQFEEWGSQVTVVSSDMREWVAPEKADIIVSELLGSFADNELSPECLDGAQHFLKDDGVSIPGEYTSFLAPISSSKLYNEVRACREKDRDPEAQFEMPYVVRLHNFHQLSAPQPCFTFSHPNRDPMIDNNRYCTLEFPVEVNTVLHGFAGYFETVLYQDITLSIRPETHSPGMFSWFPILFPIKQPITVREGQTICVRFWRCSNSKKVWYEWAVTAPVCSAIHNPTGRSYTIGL
UniProt P16234, residues 24-1089: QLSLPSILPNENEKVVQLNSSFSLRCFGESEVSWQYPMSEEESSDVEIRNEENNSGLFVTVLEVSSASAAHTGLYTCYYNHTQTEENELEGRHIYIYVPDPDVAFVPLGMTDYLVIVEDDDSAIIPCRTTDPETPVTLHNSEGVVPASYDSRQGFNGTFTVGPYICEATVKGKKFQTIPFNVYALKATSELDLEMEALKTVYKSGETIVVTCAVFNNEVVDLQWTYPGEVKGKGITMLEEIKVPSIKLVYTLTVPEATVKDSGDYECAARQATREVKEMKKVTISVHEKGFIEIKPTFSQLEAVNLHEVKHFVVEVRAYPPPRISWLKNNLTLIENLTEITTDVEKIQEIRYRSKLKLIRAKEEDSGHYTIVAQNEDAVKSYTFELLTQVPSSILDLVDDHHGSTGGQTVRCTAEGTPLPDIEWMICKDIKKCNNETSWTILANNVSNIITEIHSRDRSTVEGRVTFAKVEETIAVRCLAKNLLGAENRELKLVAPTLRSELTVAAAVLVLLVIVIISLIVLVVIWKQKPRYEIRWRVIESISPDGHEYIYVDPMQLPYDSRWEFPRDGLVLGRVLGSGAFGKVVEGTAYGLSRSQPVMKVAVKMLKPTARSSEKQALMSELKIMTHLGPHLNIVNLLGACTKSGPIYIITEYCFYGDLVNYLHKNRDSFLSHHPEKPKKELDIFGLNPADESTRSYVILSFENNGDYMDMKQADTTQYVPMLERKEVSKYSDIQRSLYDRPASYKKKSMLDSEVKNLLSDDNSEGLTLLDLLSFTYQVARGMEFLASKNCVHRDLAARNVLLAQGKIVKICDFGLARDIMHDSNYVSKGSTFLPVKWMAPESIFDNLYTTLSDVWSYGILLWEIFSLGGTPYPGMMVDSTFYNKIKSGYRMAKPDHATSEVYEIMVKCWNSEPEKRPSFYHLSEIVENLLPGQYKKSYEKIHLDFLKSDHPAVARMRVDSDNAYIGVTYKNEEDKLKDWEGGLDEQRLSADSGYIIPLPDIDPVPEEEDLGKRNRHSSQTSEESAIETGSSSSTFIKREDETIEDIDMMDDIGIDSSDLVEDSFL

Experiments:
HA-Cbl = HA-Cbl (UniProt P22681); experiment: co-IP
myc-PRMT5 = myc-PRMT5 (UniProt O14744); experiment: co-IP

binding (HA-Cbl): binds
binding (myc-PRMT5): binds
Substance: Platelet derived growth factor receptor α (PDGFRα) (from UniProt P16234 24-1089)
